Measured values as given in patent publication US8932627B2, “Liposomal compositions of glucocorticoid and glucocorticoid derivatives” (Yissum Research Development Company of the Hebrew …, priority 2004, dated 2015).

Conditions: 26° C.; MPS 0.785-30 mM
Method: Surface tension was measured using μtrouge S (Kibron Inc., Helsinki Finland). A solution containing GC derivative (300 μL) was placed in the well after calibration and zeroing of the sensor using pure water and air. The measurement was performed at 26° C.

C[C@@H]1C[C@H]2[C@@H]3CCC4=CC(=O)C=C[C@]4(C)[C@@]3(F)[C@@H](O)C[C@]2(C)[C@@]1(O)C(=O)COP(=O)(O)O [Dexamethasone phosphate]
surface activity (surface tension): not surface active at least up to concentration of 50 mM
